# According to PubChem BioAssay AID2551 (National Center for Advancing Translational Sciences (NCATS), 2010):
# Amino acid sequences for entries named in this document (tags omitted). A change or cut given only in a name is not applied to a line headed by its entry.
# UniProt P51450: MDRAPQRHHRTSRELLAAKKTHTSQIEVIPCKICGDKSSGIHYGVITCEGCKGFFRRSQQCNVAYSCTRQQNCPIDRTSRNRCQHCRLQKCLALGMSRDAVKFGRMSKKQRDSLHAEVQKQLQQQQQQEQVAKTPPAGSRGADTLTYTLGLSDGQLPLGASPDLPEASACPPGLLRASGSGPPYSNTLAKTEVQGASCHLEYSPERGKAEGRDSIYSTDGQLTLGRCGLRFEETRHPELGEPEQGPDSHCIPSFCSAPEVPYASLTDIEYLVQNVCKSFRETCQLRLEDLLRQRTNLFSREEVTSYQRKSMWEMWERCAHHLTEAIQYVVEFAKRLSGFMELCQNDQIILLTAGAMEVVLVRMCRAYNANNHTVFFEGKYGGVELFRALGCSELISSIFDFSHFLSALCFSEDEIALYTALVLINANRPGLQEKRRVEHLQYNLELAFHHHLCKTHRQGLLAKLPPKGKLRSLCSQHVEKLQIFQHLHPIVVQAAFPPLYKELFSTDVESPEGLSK
# Out of some 310,000 compounds screened, about 17,000 (5.5%) were called active. This list was built around the results that the source calls inconclusive (neither active nor inactive); the mix of calls is not that of the screen. The call rests on the fitted dose curve; in most records, active means well fitted inhibition curve with a large enough effect; inconclusive means small, poorly fitted or top-dose-only effect, or effect the other way; inactive means no such curve, though single readings can be large or run the other way. A potency beside an inconclusive call is a rough fit, not a confirmed value.
# Biological target: Nuclear receptor ROR-gamma (Mus musculus) (UniProt P51450)
# Assay: qHTS for inhibitors of ROR gamma transcriptional activity; further: nearly all actives have a fitted effect of over 60% in size
# Details: Drosophila S2 Gal4-RORgamma UAS-luciferase reporter, 20 h; activity change, negative = inhibition: at 53.6 µM (top of the series)
# Procedure, shortened: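 Stably transfected Drosophila Schneider cells are the test system, with ROR gamma fused to Gal4 and luciferase under UAS control; luminescence is read after 20 hr of 700 uM copper sulfate induction at ambient temperature.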
# On the % scale 0 is the no-effect control and ±100 the full control effect; potency means the concentration at half of the fitted maximal effect.
SMILES,Potency,"activity change, negative = inhibition"
O=C1CC(Sc2ncccn2)C(=O)N1c1ccccc1 (stereo not drawn),"inconclusive: 35.5 µM [inhibitor, single point]",
O=C(COc1ccccc1[N+](=O)[O-])N(Cc1cccc(Br)c1)C1CCS(=O)(=O)C1 (stereo not drawn),"inconclusive: 14.1 µM [activator, single point]",
Clc1ccc(Cn2c(/C=C/c3ccco3)nc3ccccc32)cc1,"inconclusive: 22.4 µM [inhibitor, single point]",
CCCC(=O)NC(c1ccccc1)c1c(O)ccc2ccccc12 (stereo not drawn),"inconclusive: 12.6 µM [activator, single point]",
COCc1ccc([C@@H]2C[C@H]3CN(Cc4cccc(Cl)c4)C(=O)[C@]34CCCN24)o1,"inconclusive: 3.55 µM [activator, partial curve]",
CCOc1ccccc1NC(=S)NC(=O)C1CCCCC1,active: 5.62 µM,
O=C(CSc1n[nH]c(-c2ccncc2)n1)Nc1ccccc1,,inactive: -34.3%
CC(=O)Nc1c(C(N)=O)oc2ccc(Cl)cc12,,inactive: -10.6%
Cc1nc2c(C)cccc2c2c1CCN2c1ccccc1F,,inactive: -1.69%
c1csc(-c2ccn[nH]2)c1,,inactive: 3.85%
CC(CN1CCN(Cc2ccccc2)CC1)c1ccccc1 (stereo not drawn),,inactive: -4.06%
Cc1ccc(NC2Sc3ccccc3NC2=O)cc1Cl (stereo not drawn),,inactive: -42.7%
CN(C)C(=O)Oc1cccc([N+](C)(C)C)c1,inactive,
CCn1c(N2CCN(C(=S)NC)CC2)nc2ccccc21,,inactive: 1.54%
NNC(=O)CSc1nc(-c2ccccc2)nc2c1CCCC2,"inconclusive: 25.1 µM [inhibitor, single point]",
CCc1cc2c3c(c(=O)oc2cc1OCC(=O)OC)CCCC3,"inconclusive: 17.8 µM [activator, partial curve, poor fit]",
Cn1nc(C(=O)OCc2ccc(Br)cc2F)c2ccccc2c1=O,"inconclusive: 6.31 µM [activator, single point]",
CCOC(=O)c1c(NC(=O)C2CC2)sc(C)c1CC,"inconclusive: 11.2 µM [activator, partial curve]",
Brc1ccc(-c2nnc(-c3ccccc3Br)o2)cc1,,inactive: -8.33%
N#C/C(=C/c1ccc(O)c(O)c1)c1nc2ccccc2[nH]1,"inconclusive: 20 µM [inhibitor, partial curve]",
CS(=O)(=O)Nc1cccc(-c2ccc3ncnc(NCCN4CCOCC4)c3c2)c1,"inconclusive: 22.4 µM [activator, partial curve]",
COc1ccccc1NC(=S)NC(=O)c1ccc(-c2ccc(Cl)cc2)o1,active: 1.78 µM,
COc1ccc(C2CC(c3ccc(F)cc3)n3nc(NC(=O)c4ccco4)nc3N2)cc1 (stereo not drawn),active: 7.08 µM,

# Complete entries, looked up by structure:
# COc1ccccc1NC(=S)NC(=O)c1ccc(-c2ccc(Cl)cc2)o1 in the list: Potency: active: 1.78 µM
# CCCC(=O)NC(c1ccccc1)c1c(O)ccc2ccccc12 (stereo not drawn) in the list: Potency: inconclusive: 12.6 µM [activator, single point]
